# Data taken from the supplement of paper PMC10689618.
# Where a name gives a salt, the structure may show the parent alone. Some of the results follow. Single values are uncertain, as repeats are few or missing.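 Primary human fetal astrocytes engulfed labelled rat cortical synaptosomes, measured as a red/green ratio corrected for calcein live-cell signal and scaled to the plate median. Toxicity meant calcein falling over 30%; decreased phagocytosis meant below 70% of median above 5 µM.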
# Tests used:
# [1] = system: Human fetal astrocytes; test: loss of total cells relative to no-compound high-control median (toxicity); higher = more toxic (fewer cells); settings: 24 h
# [2] = system: Human fetal astrocytes; test: synaptosome phagocytosis (pHrodo/calcein intensity ratio) relative to plate median of data wells; higher = more phagocytosis; settings: 24 h
SMILES,loss of total cells ([1]; 1.39 µM),loss of total cells ([1]; 2.78 µM),loss of total cells ([1]; 5.56 µM),loss of total cells ([1]; 11.11 µM),loss of total cells ([1]; 22.22 µM),synaptosome phagocytosis ([2]; 1.39 µM),synaptosome phagocytosis ([2]; 2.78 µM),synaptosome phagocytosis ([2]; 5.56 µM),synaptosome phagocytosis ([2]; 11.11 µM),synaptosome phagocytosis ([2]; 22.22 µM)
C#C[C@]1(O)CC[C@H]2[C@@H]3CCC4=Cc5oncc5C[C@]4(C)[C@H]3CC[C@@]21C [Danazol],-2.9%,-25.6%,-2.5%,0.4%,2.4%,107%,126%,93%,115%,97.5%
"NCCCCCCCCCCN [1,10-Diaminodecane]",-2.1%,-11.1%,4.1%,-11.2%,13.6%,94.7%,111%,90.9%,94.5%,120%
Nc1ncnc2c1ncn2C1CCCC1 [9-cyclopentyladenine],-8.8%,-10.8%,-15.2%,-11.2%,8.6%,128%,100%,112%,128%,117%
CC(C)(C)c1ccc(S(=O)(=O)/C=C/C#N)cc1,-5.1%,-11.4%,-21.7%,7.6%,80.8%,108%,123%,104%,73%,66.8%
O=C(O)/C(=C\c1c(C(=O)O)[nH]c2cc(Cl)cc(Cl)c12)c1ccccc1,-8.1%,-6.8%,5.2%,-4.8%,20.6%,123%,136%,109%,94.3%,143%
"N[C@H](C(=O)O)[C@H]1C[C@@H]1C(=O)O [(2S,1'S,2'S)-2-(carboxycyclopropyl)glycine]",-6.3%,-14.5%,-2.5%,-3.1%,0%,104%,90.9%,118%,118%,99.1%
Nc1nc(N)c2nc(CNc3ccc(C(=O)N[C@@H](CCC(=O)O)C(=O)O)cc3)cnc2n1 [Aminopterin],-21.7%,-18.6%,-19.8%,-8.5%,11.7%,113%,81.5%,115%,125%,128%
CC(=O)S[C@@H]1CC2=CC(=O)CC[C@]2(C)[C@H]2CC[C@@]3(C)[C@@H](CC[C@@]34CCC(=O)O4)[C@H]12 [Spironolactone],-27.6%,-28.4%,-15.2%,-21.8%,-28%,79.9%,80.7%,87.7%,125%,90.3%
COC(=O)c1c(-c2cc(OC)c(OC)c(OC)c2)c2ccc(OCc3ccccn3)cc2c(=O)n1-c1ccc(N)cc1,-12.1%,-14.1%,-21.3%,1.1%,-12.3%,113%,127%,105%,121%,128%
CC1(C)CCC(NC(=O)[C@@H](N)CCC(=O)O)CC1,-21.3%,1.4%,-2.3%,15.2%,12.1%,76.1%,122%,123%,110%,116%
CC(CCc1ccccc1)NCC(O)c1ccc(O)c(C(N)=O)c1 (stereo not given) [Labetalol hydrochloride],26.1%,13.1%,20.2%,18.1%,29.9%,51.5%,48.1%,71.2%,42.5%,44.9%
NC1CONC1=O (racemic) [DL-Cycloserine],-25.7%,-22.3%,-22.6%,-10.3%,1.9%,87.6%,72.5%,110%,108%,101%
"CCn1c(=O)c2[nH]c(-c3ccccc3)nc2n(CC)c1=O [1,3-Diethyl-8-phenylxanthine]",-16.1%,-15.6%,-22.6%,-9.4%,-7.9%,120%,93.6%,104%,109%,109%
"N/C(=N\C(=O)c1nc(Cl)c(N)nc1N)NCc1ccc(Cl)c(Cl)c1 [3',4'-Dichlorobenzamil]",0.4%,-12.8%,3.3%,6.7%,21.6%,75.3%,63%,59.4%,103%,55.8%
COc1ccc(CCNC[C@@H](O)c2ccc(O)cc2)cc1OC [R(-)-Denopamine],-14%,6.3%,-24.7%,-12.6%,-5.8%,102%,95.6%,72.8%,96.9%,92%
S=C(S)N1CCCC1 [Ammonium pyrrolidinedithiocarbamate],-7.1%,15.3%,28.7%,59.4%,55.1%,98.2%,73.9%,36.5%,33.6%,34.8%
OCC1OC(n2cnc3c(NCCc4ccccc4)ncnc32)C(O)C1O (stereo not given) [N6-2-Phenylethyladenosine],-15.8%,-30.2%,-30.3%,-24.9%,-24.7%,118%,97.2%,112%,132%,139%
N=C(NC(=O)c1nc(Cl)c(N)nc1N)Nc1ccccc1 [Phenamil methanesulfonate],-20.8%,-23.1%,-13.5%,-19.5%,-16.5%,80.1%,62.3%,68.4%,82.8%,58.5%

# Structures listed so far containing a carbonyl joined to an NH by a bond outside any ring:
SMILES,loss of total cells ([1]; 1.39 µM),loss of total cells ([1]; 2.78 µM),loss of total cells ([1]; 5.56 µM),loss of total cells ([1]; 11.11 µM),loss of total cells ([1]; 22.22 µM),synaptosome phagocytosis ([2]; 1.39 µM),synaptosome phagocytosis ([2]; 2.78 µM),synaptosome phagocytosis ([2]; 5.56 µM),synaptosome phagocytosis ([2]; 11.11 µM),synaptosome phagocytosis ([2]; 22.22 µM)
Nc1nc(N)c2nc(CNc3ccc(C(=O)N[C@@H](CCC(=O)O)C(=O)O)cc3)cnc2n1 [Aminopterin],-21.7%,-18.6%,-19.8%,-8.5%,11.7%,113%,81.5%,115%,125%,128%
CC1(C)CCC(NC(=O)[C@@H](N)CCC(=O)O)CC1,-21.3%,1.4%,-2.3%,15.2%,12.1%,76.1%,122%,123%,110%,116%
CC(CCc1ccccc1)NCC(O)c1ccc(O)c(C(N)=O)c1 (stereo not given) [Labetalol hydrochloride],26.1%,13.1%,20.2%,18.1%,29.9%,51.5%,48.1%,71.2%,42.5%,44.9%
N=C(NC(=O)c1nc(Cl)c(N)nc1N)Nc1ccccc1 [Phenamil methanesulfonate],-20.8%,-23.1%,-13.5%,-19.5%,-16.5%,80.1%,62.3%,68.4%,82.8%,58.5%

# Following part

SMILES,loss of total cells ([1]; 1.39 µM),loss of total cells ([1]; 2.78 µM),loss of total cells ([1]; 5.56 µM),loss of total cells ([1]; 11.11 µM),loss of total cells ([1]; 22.22 µM),synaptosome phagocytosis ([2]; 1.39 µM),synaptosome phagocytosis ([2]; 2.78 µM),synaptosome phagocytosis ([2]; 5.56 µM),synaptosome phagocytosis ([2]; 11.11 µM),synaptosome phagocytosis ([2]; 22.22 µM)
O=C1N(c2ccccc2)c2ccccc2C1(Cc1ccncc1)Cc1ccncc1 [Linopirdine],1.4%,14%,5.2%,23.8%,1.9%,98.6%,137%,85.4%,104%,96.1%
N[C@@H](Cc1c[nH]c2ccc(O)cc12)C(=O)O [5-Hydroxy-L-tryptophan],-19.7%,-12.8%,3.3%,-13.9%,-9.6%,108%,101%,103%,98.2%,168%
"c1ccc(C2CN3CCSC3=N2)cc1 (single isomer, unassigned; (-)) [(-)-Tetramisole hydrochloride]",-20.4%,5%,-2.3%,0%,15.9%,103%,120%,106%,87%,124%
Nc1nc(Cl)nc2c1ncn2[C@@H]1O[C@H](CO)[C@@H](O)[C@H]1O [2-Chloroadenosine],-18.7%,-20.2%,-17.1%,13%,5.6%,105%,109%,105%,128%,100%
O=C(O)CCCCC1CCSS1 (racemic) [(±)-alpha-Lipoic Acid],-16.5%,-9.9%,4.5%,-12.6%,-18.9%,101%,85.3%,89.9%,103%,120%
COc1[nH]c2ccc(F)cc2c1C(=O)OCC1CCN(CCNS(C)(=O)=O)CC1.NS(=O)(=O)O,-2.1%,0%,4.9%,-16.6%,-5.6%,114%,83.9%,108%,77.7%,74%
C[C@]12CC[C@@H]3c4ccc(O)cc4CC[C@H]3[C@@H]1CC[C@@H]2O [beta-Estradiol],10.5%,-29.9%,-9.9%,-14.8%,3.2%,102%,83.9%,94.1%,110%,89.9%
C[N+](C)(C)CCCCCNCC12CC3CC(CC(C3)C1)C2,-0.4%,-12.8%,-15.6%,-13.9%,-1.6%,121%,114%,102%,90.4%,136%
"CN(C)c1nc(N)c(C(=O)NC(=N)N)nc1Cl [5-(N,N-Dimethyl)amiloride hydrochloride]",-22.8%,-12.9%,-2.3%,-7.6%,-6.4%,88.7%,91.6%,87.6%,97.8%,94.2%
Nc1cc(Cl)c(NC2=NCCN2)c(Cl)c1 [p-Aminoclonidine hydrochloride],-6.2%,-7.5%,-8.8%,-4.9%,7.9%,104%,101%,112%,109%,118%
C[C@]12CCC(=O)C=C1CC[C@@H]1[C@@H]2[C@@H](O)C[C@@]2(C)[C@H]1CC[C@]2(O)C(=O)COC(=O)CCC(=O)O [Hydrocortisone 21-hemisuccinate sodium],9.6%,-6.8%,0.8%,-30%,17.6%,74.5%,106%,101%,113%,104%
"CCN(CC)CCOC(=O)c1cc(Cl)c(N)cc1OC [SDZ-205,557 hydrochloride]",-19.6%,-15.3%,5.1%,-4.2%,-10.7%,107%,103%,127%,92.4%,104%
O=C(NCC1CCCCN1)c1cc(OCC(F)(F)F)ccc1OCC(F)(F)F (stereo not given) [Flecainide acetate],1.3%,-23.1%,-15.6%,-9.4%,-7.2%,105%,101%,106%,110%,115%
CC(C)Cc1ccc([C@H](C)C(=O)O)cc1 [S(+)-Ibuprofen],10%,14%,31.5%,4.8%,20.6%,118%,75.9%,82.5%,96.7%,120%
"CC(C)NCC(O)c1ccc(O)c(O)c1 (single isomer, unassigned; (-)) [(-)-Isoproterenol hydrochloride]",-2.4%,12.2%,4.2%,14.3%,11.2%,96.4%,88.6%,99.8%,131%,76.1%
CC(CCc1ccc(O)cc1)NCCc1ccc(O)c(O)c1 (stereo not given) [Dobutamine hydrochloride],-7.1%,-6.8%,12.3%,1.3%,-11.2%,116%,98.1%,121%,97.1%,69%
Cc1nc2c(OCc3ccccc3)cccn2c1CC#N,-16.3%,-1.7%,-4.1%,-16.6%,5.6%,87.6%,108%,108%,75%,80.3%
